# According to PubChem BioAssay AID493014 (National Center for Advancing Translational Sciences (NCATS), 2011):
# Values joined by “and” are separate entries in the source; they are usually repeats but may differ in a detail not shown here. Identical values can stand only once. The list shows a part of the results. Further columns of the screen follow, without active or inactive calls. Compounds called inactive in the main read-out are mostly missing here. Potencies come from curve fits of mixed quality, noted in brackets.
# Experiment: qHTS Assay to Find Inhibitors of Chronic Active B-Cell Receptor Signaling
# Conditions: ABC-DLBCL IkBa-CBG/CBR reporter, luminescence ratio (green luciferase fused to IkBa over red control in TMD8 lymphoma cells), 4 h
# In short: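 Concentration-response series (up to 46 uM) were applied to TMD8 dual-reporter cells for 4 h at 37C with doxycycline. Green/red ratio, after filter-overlap correction, defined %Activity; red signal alone was normalised to basal cells and zero luminescence.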
# [1] = measured here: CBR red luminescence, cell number
# [2] = measured here: IkBa-CBG green luminescence
Compound,AC50 [1],AC50 [2]
Cc1ccc(C(=O)Nc2ccc(C(=O)O)cc2NC(=O)c2ccc(C)cc2)cc1,"8.91 µM [falling, partial curve, poor fit]",–
CCCCCCCCN1N=N[C@H]2[C@H]1[C@@H]1C[C@H]2N(C(=O)OC(C)(C)C)O1,"29.1 µM [rising, single point]",–
O=C(CN1CCCc2ccccc21)N/N=C/c1ccc(O)cc1O,"2.31 µM [falling, full curve, poor fit]",–
COC(=O)CCCNC(=O)c1ccc(S(=O)(=O)NCc2ccco2)cc1,"5.8 µM [rising, partial curve, poor fit]",–
Cc1ccsc1C(=O)NNC(=O)C1C2C=CC(C2)C1C(=O)O (stereo not given),"0.651 µM [falling, full curve]",–
Cc1nnc(SCc2ccc(C(=O)O)cc2)s1,"29.1 µM [rising, single point]",–
Cc1n[nH]c(C)c1CCN(C)Cc1cn(C)nc1-c1ccc2c(c1)OCCO2,"6.31 µM [rising, single point]",–
O=C(c1c[nH]c2ccccc12)N1CCOCC1,"10 µM [falling, single point]",–
Cc1cccc(NC(=O)Cn2nnc(-c3cccs3)n2)c1C,"5.01 µM [rising, partial curve, poor fit]",–
Oc1ccc(Br)cc1-c1ccnn1-c1ccccc1,"35.5 µM [rising, single point]",–
Cc1cc(/C=C(/C#N)c2nc3ccccc3[nH]2)c(C)n1-c1ccccc1C(=O)O,"22.4 µM [falling, single point]",–
COc1cccc(/C=C/C(=O)c2ccc(NS(=O)(=O)c3ccc(C)cc3)cc2)c1,"18.4 µM [falling, single point]",–
COc1cccc(C(=O)Nc2ccc(NC(=O)C3CCCCC3)nc2)c1,"0.112 µM [rising, full curve, poor fit]",–
Cc1cccc(C2CC3(CC(C)(C)NC(=S)N3)Oc3cc(O)ccc32)c1 (stereo not given),"14.1 µM [falling, partial curve]",–
COc1ccccc1/C=C\C=N\NC(=O)c1ccco1,"2.24 µM [falling, full curve]",–
O=C(Nc1ccc2c(c1)OCO2)C1CC(c2ccccc2O)=NO1 (stereo not given),"14.1 µM [falling, single point]",–
CCOc1ccc(C(=O)Nc2cccc(NC(=O)c3cccs3)c2)cc1[N+](=O)[O-],"7.31 µM [falling, partial curve]",–
CCC(=O)c1ccc2c(c1)OCCO2,"6.31 µM [rising, single point]",–
COc1cc2c(cc1NC(=O)C(C)Sc1cccc[n+]1[O-])oc1ccccc12 (stereo not given),"25.9 µM [falling, single point]",–
COC(=O)CN1C(c2cccc(Cl)c2)=Nc2ccc(Cl)cc2C1c1ccccc1 (stereo not given),"29.1 µM [falling, single point]",–
O=C(NC1CCc2ccccc21)c1cc(COc2c(F)cccc2F)on1 (stereo not given),"7.94 µM [falling, partial curve, poor fit]",–

Compound,AC50 [1],AC50 [2]
CCOC(=O)C1=C(C)c2ccccc2N(C(=O)OC)C1(C)C(=O)OCC (stereo not given),–,"20.6 µM [falling, partial curve]"
O=C(/C=C/c1ccco1)OCC(=O)c1ccc(OC(F)F)cc1,"8.2 µM [rising, partial curve, poor fit]",–
Cc1ccc(C)c2[nH]c(=O)c(CN(Cc3ccco3)C(=O)Nc3ccccc3)cc12,"12.6 µM [falling, partial curve]",–
Nc1ccc(SCc2nc3cccc4c3n2CCC4)cc1,"11.2 µM [rising, single point]",–
COc1ccc(NC(=O)C2CCCCN2S(=O)(=O)c2ccc(F)cc2)c(OC)c1 (stereo not given),"15.8 µM [falling, partial curve, poor fit]",–
CCOc1ccccc1C(=O)Nc1cc(OC)ccc1OC,"2.82 µM [falling, full curve, poor fit]",–
COc1ccc(NS(=O)(=O)c2cc(NC(=O)c3nn(C)c(=O)c4ccccc34)ccc2OC)cc1,"4.47 µM [rising, partial curve]",–
COc1cc(C(=O)c2cocc2C(=O)c2ccc3c(c2)OCO3)cc(OC)c1OC,"15.8 µM [rising, partial curve]","11.2 µM [falling, partial curve]"
O=C(CSC1=Nc2ccccc2C2=NC(Cc3c[nH]c4ccccc34)C(=O)N12)NC1CCCCC1 (stereo not given),"32.6 µM [falling, partial curve, poor fit]",–
C=C1CC(C(=O)N/N=C/c2ccc(O)cc2)C1,"23.1 µM [falling, single point]",–
CCc1noc(C)c1C(=O)Nc1nc(-c2ccc(OC)c(OC)c2)cs1,"16.4 µM [falling, partial curve, poor fit]",–
COc1ccc(S(=O)(=O)CC(=O)c2cc3cccc(C)c3oc2=O)cc1,"22.4 µM [falling, partial curve, poor fit]",–
CN(C)C=Nc1ccc2nn(-c3ccccc3)nc2c1,"35.5 µM [falling, single point]",–
O=C(c1ccccc1-c1nc(-c2ccccc2)no1)N1CCCC1,"6.51 µM [rising, partial curve, poor fit]",–
COc1ccc(S(=O)(=O)N2CCN(c3ccc(C)cc3C)CC2)cc1OC,"11.6 µM [falling, single point]",–
Cc1ccc2nc(NC(=O)COC(=O)c3ccccn3)sc2c1,"5.01 µM [falling, full curve, poor fit]",–
CCN(CC(=O)Nc1ccccc1SC)Cc1nc2ccccc2c(=O)[nH]1,"14.1 µM [falling, single point]","11.2 µM [falling, partial curve]"
COc1ccc(S(=O)(=O)NCC2CCCN(C(=O)CN3CCCCC3)C2)cc1 (stereo not given),"14.1 µM [rising, partial curve, poor fit]",–
COc1ccc(-c2ccc(-c3nnn(CC(=O)N4CCOCC4)n3)cc2)cc1,"0.631 µM [falling, full curve]",–
CC(=O)Oc1ccc(Cn2cnc3cc4ccccc4cc32)cc1,"7.31 µM [falling, partial curve]",–
COCCNc1nc2ccccc2nc1NS(=O)(=O)c1ccc(C)cc1C,"4.61 µM [falling, partial curve, poor fit]",–

Compound,AC50 [1],AC50 [2]
COc1ccc(CNC(=O)CCCN2C(=O)c3ccccc3C2=O)cc1,"2.51 µM [rising, full curve, poor fit]",–
COc1cccc2c1OCC(C(=O)Nc1nccs1)=C2,"5.01 µM [falling, partial curve, poor fit]",–
CC(C)(C)c1ccc(-c2cn(-c3ccc(Br)cc3)c3[n+]2CCCS3)cc1,"35.5 µM [falling, single point]",–
C=CCc1ccccc1OCC(CN1CCCCC1)OC(C)=O (stereo not given),"29.1 µM [falling, single point]",–
COC(=O)Cc1c(C)nc2nc(NCc3ccc(Cl)cc3)[nH]n2c1=O,"23.1 µM [falling, partial curve, poor fit]",–
Cc1sc(N/N=C/c2cccnc2)nc1-c1ccccc1,"10 µM [falling, partial curve, poor fit]",–
O=C(c1ccc2c3c(cccc13)CC2)C1CCCN(C(=O)c2cc[n+]([O-])cc2)C1 (stereo not given),"11.2 µM [falling, single point]",–
CCNC(=S)N/N=C/c1ccc(OCCOc2ccccc2C)cc1,"2.59 µM [rising, full curve, poor fit]",–
Cc1noc(/C=C/N(C)C)c1S(=O)(=O)N1CCCC(C(=O)NCc2cccs2)C1 (stereo not given),"18.4 µM [rising, single point]",–
CCCNC(=O)NC(=O)COc1ccc2oc3ccccc3c2c1,"0.00517 µM [rising, full curve, poor fit]",–
O=C(COc1ccccc1)N1CCN(C(=O)c2cccc(F)c2)CC1,"20.6 µM [rising, partial curve, poor fit]",–
CCn1ccnc1CN(C)Cc1cn(-c2ccccc2)nc1-c1ccc(OC)cc1F,"0.0891 µM [rising, full curve, poor fit]",–
CCOc1cc(NS(=O)(=O)c2ccc(Cl)cc2)c(OCC)cc1NC(=O)CC(C)C,"29.1 µM [rising, single point]",–
Cc1cccc(-n2[nH]c3c4c(ccc3c2=O)C(=O)c2ccccc2C4=O)c1,"0.58 µM [rising, full curve, poor fit]",–
Cc1cccc(NC(=O)CSc2nnc(Cn3nnc(-c4ccccc4)n3)n2-c2ccccc2)c1,"35.5 µM [rising, single point]",–
CC(/C=C/c1ccccc1)=N/NC(=O)CNC(=O)c1ccccc1F,"1.41 µM [rising, full curve, poor fit]",–
O=c1cc(-c2ccccc2)nc2cc(-c3ccco3)[nH]n12,"0.891 µM [falling, full curve]",–
CC(=O)OCC(=O)[C@@]1(O)CC[C@H]2[C@@H]3CCC4=CC(=O)CC[C@]4(C)[C@H]3[C@@H](O)C[C@@]21C,"1.84 µM [rising, partial curve, poor fit] and 1.46 µM [rising, full curve]",–
CCOc1ccc(N2CC(C(=O)N3CCCc4ccccc43)CC2=O)cc1 (stereo not given),"0.0891 µM [falling, full curve, poor fit]",–
N#Cc1c(Nc2ccccc2Cl)s[nH]c1=O,"20 µM [falling, single point]",–
O=C(CSc1ncnc2ccccc12)NCCCO,"7.31 µM [falling, partial curve]",–
